# Source: PMC7819943, “Rice protein-binding microarrays: a tool to detect cis-acting elements near promoter regions in rice”
# Amino acid sequences for entries named in this document (tags omitted).
# UniProt Q0JBA9, entry or part of it: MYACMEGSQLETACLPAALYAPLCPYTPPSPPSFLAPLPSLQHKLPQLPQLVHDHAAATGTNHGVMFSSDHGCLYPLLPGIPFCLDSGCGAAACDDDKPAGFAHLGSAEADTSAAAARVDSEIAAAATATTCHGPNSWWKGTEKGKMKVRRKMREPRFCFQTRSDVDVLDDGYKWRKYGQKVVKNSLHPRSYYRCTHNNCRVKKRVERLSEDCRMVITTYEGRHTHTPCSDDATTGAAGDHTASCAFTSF
# This is one part of the list.
# Target: OsWRKY34 (Oryza sativa, UniProt Q0JBA9 1-250)
# Assay: protein-binding microarray (RPBM); PBS, 2% BSA, 51.3 ng/ul salmon testes DNA, 50 uM zinc acetate, 200 nM TF, 25 C, 1 h; high values mean tight binding
# Settings: protein: recombinant; tags: N-terminal polyhistidine and DsRed monomer fusion (pET32a); label: CyDye5-dUTP incorporated in the synthesized complementary strand; 3' TTTTT single-stranded linker to array surface; dsDNA, one strand shown
# Method in brief: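 Transcription factors, each fused N-terminally to a polyhistidine tag and DsRed, were expressed in E. coli BL21-CodonPlus and purified on Ni–NTA. A custom Agilent array was made double-stranded by primer extension with Cy5-dUTP and blocked with 2% BSA. It was incubated with 200 nM protein in PBS, 2% BSA, salmon testes DNA and 50 µM zinc acetate at 25 °C for 1 h, then washed. The binding signal is per-feature fluorescence intensity (arbitrary units) read on an Axon 4000B scanner.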
row,Sequence,binding signal
1,AGTTTTTGTATGAGTTGTTCGATGTTTTACGCTCCCAAATCGGAGTCACCTAGTGCAG,8520 fluorescence intensity (a.u.)
2,GCATGGTTATAACATAGGGGTGTATGGGGATAGTCATGCTCGGAGTCACCTAGTGCAG,9470 fluorescence intensity (a.u.)
3,TCGGGCTTTTGCTTCTCGAGGTTTGCCTTTGTATGCAGCACGGAGTCACCTAGTGCAG,8340 fluorescence intensity (a.u.)
4,TGCTCCACTTTCATCCCTACATCTCGGTCTCTCACAAGACCGGAGTCACCTAGTGCAG,10800 fluorescence intensity (a.u.)
5,TGACATGGTTGTTAGGGTTTGCGAGCAAATTTTCGTGGGGCGGAGTCACCTAGTGCAG,10100 fluorescence intensity (a.u.)
6,CTAGTGCGTGTTGTGTTCTTTAGTTGGTCGCCACACGGGCCGGAGTCACCTAGTGCAG,8300 fluorescence intensity (a.u.)
7,GCCCCAACCATCTCTCGCTCTCGCGCGCACGCAAACGCAACGGAGTCACCTAGTGCAG,9700 fluorescence intensity (a.u.)
8,ACATATCTGGTTTTACGGTTCGAGTACTTTTTTTATCCTGCGGAGTCACCTAGTGCAG,11000 fluorescence intensity (a.u.)
9,GCTGGGTGTCAGAGGCTTCTTCAATGTTCTCCTCCTCAGGCGGAGTCACCTAGTGCAG,8050 fluorescence intensity (a.u.)
10,CTCCTCTTGACATCACCCTACTTCCATATGCTGGCTTTAACGGAGTCACCTAGTGCAG,11800 fluorescence intensity (a.u.)
11,ACATTCTACTCAATATCTCAAATATGCTAACTCATTTTCCCGGAGTCACCTAGTGCAG,8100 fluorescence intensity (a.u.)
12,AATGTACTCCTCCACATGCCTTCAATTCAGTACCATGTTTCGGAGTCACCTAGTGCAG,10300 fluorescence intensity (a.u.)
13,CTCGCAAAATCAACGCTTGAGACGTTAGACACCCAATTTCCGGAGTCACCTAGTGCAG,8080 fluorescence intensity (a.u.)
14,TATTTAACACATGGGAGGGAGATATTTAGTCTCGGTTAGTCGGAGTCACCTAGTGCAG,9700 fluorescence intensity (a.u.)
15,TTTCCTGCTGTTTGTAGTTGTGTTTAGCCGCTGTAGTTTACGGAGTCACCTAGTGCAG,10900 fluorescence intensity (a.u.)
16,ACGCGCGCACGCTCACCCCTATGAACATACATCCTACCCTCGGAGTCACCTAGTGCAG,8600 fluorescence intensity (a.u.)
17,TGATGCATGGTGCCTCTGTCCTTTCAACTTTGGTTGCCTTCGGAGTCACCTAGTGCAG,8620 fluorescence intensity (a.u.)
18,GCGACCACGCTCGACCGCCATCTCCCGCTCCTTGACCGTCCGGAGTCACCTAGTGCAG,10200 fluorescence intensity (a.u.)
19,ACGCCAAACAATTTGATTCGTTGTCTTCGTGTTTTATTTCCGGAGTCACCTAGTGCAG,11100 fluorescence intensity (a.u.)
20,GTGAGGGGATCTTTCTCTTGGCTTCACTCGTCTTCCAATCCGGAGTCACCTAGTGCAG,10900 fluorescence intensity (a.u.)
21,GACGCCACATGGCTGCTAAACTTCGTTATCCTGTTGTTGTCGGAGTCACCTAGTGCAG,8470 fluorescence intensity (a.u.)

row,Sequence,binding signal
1,ATACCTCTTGTGTATTAATTAAACATTAGTGTTTCTGTTCCGGAGTCACCTAGTGCAG,48000 fluorescence intensity (a.u.)
2,CTACACATGTCGTCGTCCTTCTTATCCTTTTCATTTTCATCGGAGTCACCTAGTGCAG,9410 fluorescence intensity (a.u.)
3,CACAAACTTTCAACTTTTTTGTCACATCGTTTCAATTTTACGGAGTCACCTAGTGCAG,9800 fluorescence intensity (a.u.)
4,AACAAACAACTCAATTTATTTATCTTGTCATACGGCAATCCGGAGTCACCTAGTGCAG,10100 fluorescence intensity (a.u.)
5,ATTTATCTGCACCACTGAATTTAATCTGTACCCAATATTCCGGAGTCACCTAGTGCAG,9500 fluorescence intensity (a.u.)
6,CCGCCGCCGCCGAAGCTCTCCACCACCGAATGGTCAATCTCGGAGTCACCTAGTGCAG,8920 fluorescence intensity (a.u.)
7,AGCAGTAGTCAGTTCCACTCCTACTAGTACTTCTCTCCACCGGAGTCACCTAGTGCAG,10300 fluorescence intensity (a.u.)
8,TGTCCGTGGTCTCTTTTTATGCGAGAATATGATTTCCGGTCGGAGTCACCTAGTGCAG,8070 fluorescence intensity (a.u.)
9,AGGCGAGCGGCGCCGCGGCGTCGTGGGTGGTGGGGCGGATCGGAGTCACCTAGTGCAG,9650 fluorescence intensity (a.u.)
10,CTTTTTCAAGCCATGGTTTGTCTTGGAGCTTTATATATTACGGAGTCACCTAGTGCAG,9870 fluorescence intensity (a.u.)
11,GTACCAATCGTCTCATCATGATCTAAGCCAAATCTAAACACGGAGTCACCTAGTGCAG,9450 fluorescence intensity (a.u.)
12,TTCATATTTTTGCTCTATTCCCGTCACTGCATCCGTTCTACGGAGTCACCTAGTGCAG,13000 fluorescence intensity (a.u.)
13,TTTCTTGGTGCGTGGTTACTTTCTTAGGGATGACAGGTGGCGGAGTCACCTAGTGCAG,9830 fluorescence intensity (a.u.)
14,TTTTTTTATTCGTGTCTGAAAATCATTTCCGATATCCGGTCGGAGTCACCTAGTGCAG,8470 fluorescence intensity (a.u.)
15,GGGAGGGAGGGATCAAATGCAGGCAGTTCAATAGAAAAAGCGGAGTCACCTAGTGCAG,8960 fluorescence intensity (a.u.)
16,GTTTGCGTTCGTTCATCTGCCTGCGTTTTCCACGCCTCTCCGGAGTCACCTAGTGCAG,11600 fluorescence intensity (a.u.)
17,GTAAATATACCTATTCTGCTCATTTTGCCCTTGTTGGAGTCGGAGTCACCTAGTGCAG,9100 fluorescence intensity (a.u.)
18,CCTTTTTCCCTTTATTTCCGTATTGATTGCGCAATTATTCCGGAGTCACCTAGTGCAG,10500 fluorescence intensity (a.u.)
19,GTTAACTTTTTAGCACATGTTTGACCGTTCGTCTTATTCACGGAGTCACCTAGTGCAG,12600 fluorescence intensity (a.u.)
20,CCACTGCTCCTCACGCCGTTCACATTACCATTCTAATAAACGGAGTCACCTAGTGCAG,8070 fluorescence intensity (a.u.)
21,TGTCGTCGTCCCGGTCTTCGTCGTAGTCGTCTCCTGCCGGCGGAGTCACCTAGTGCAG,11100 fluorescence intensity (a.u.)

# Exported with bars between the fields: part of the list above.
row | Sequence | binding signal
5 | ATTTATCTGCACCACTGAATTTAATCTGTACCCAATATTCCGGAGTCACCTAGTGCAG | 9500 fluorescence intensity (a.u.)
21 | TGTCGTCGTCCCGGTCTTCGTCGTAGTCGTCTCCTGCCGGCGGAGTCACCTAGTGCAG | 11100 fluorescence intensity (a.u.)
